No constants are given. Whether binding was seen depends on the method and setting. For part of these data: In cells and extracts the contact can be indirect. Some binding calls cover weakened binding; strength is not graded here. For part of these data: Where a sequence is shown, tags or fusion partners need not be part of it.
Assays:
[1] = biological target: T1, GFP-SNX17 (wild type, N-terminal GFP) (UniProt Q15036); experiment: co-IP
T1 sequence: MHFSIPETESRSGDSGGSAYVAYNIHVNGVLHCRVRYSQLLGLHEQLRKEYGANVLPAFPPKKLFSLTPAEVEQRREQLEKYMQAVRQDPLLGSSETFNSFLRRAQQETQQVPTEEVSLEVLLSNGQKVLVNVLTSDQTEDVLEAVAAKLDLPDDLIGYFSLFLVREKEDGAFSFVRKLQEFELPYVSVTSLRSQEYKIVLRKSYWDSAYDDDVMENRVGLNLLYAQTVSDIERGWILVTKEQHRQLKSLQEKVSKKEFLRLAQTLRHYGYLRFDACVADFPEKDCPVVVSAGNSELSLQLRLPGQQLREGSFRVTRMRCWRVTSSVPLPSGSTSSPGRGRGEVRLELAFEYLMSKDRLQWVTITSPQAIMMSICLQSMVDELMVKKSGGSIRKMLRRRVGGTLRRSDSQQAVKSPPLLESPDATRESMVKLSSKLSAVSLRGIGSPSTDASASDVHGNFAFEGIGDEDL

GFP-VPS26C = GFP-VPS26C (UniProt O14972); experiment: co-IP
[2] = biological target: full-length VPS26C (recombinant) (UniProt O14972); experiment: ITC

Q: “endogenous PDLIM7 (from UniProt Q9NR12 1-457)” was tested. Which binding [1] did it give?
A: The binding was “binds”.

Q: And the binding (GFP-VPS26C)?
A: The binding was “no binding”.

Q: With HGNFAFEGIGDEDL [SNX17 C-terminal peptide (457-470) used for ITC] as the molecule, how does the binding [2] read?
A: Its binding is “no binding”.

Source: paper doi:10.1101/2021.07.29.454387 (bioRxiv, 2021)
